Data on three molecules can be found in paper PMC5119889.

The chains behind the UniProt entries cited, without tags or fusion partners. Residues count along the entry.
UniProt Q9BVA1, residues 390-445: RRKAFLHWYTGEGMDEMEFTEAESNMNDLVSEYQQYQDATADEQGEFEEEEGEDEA
UniProt Q8BRK8: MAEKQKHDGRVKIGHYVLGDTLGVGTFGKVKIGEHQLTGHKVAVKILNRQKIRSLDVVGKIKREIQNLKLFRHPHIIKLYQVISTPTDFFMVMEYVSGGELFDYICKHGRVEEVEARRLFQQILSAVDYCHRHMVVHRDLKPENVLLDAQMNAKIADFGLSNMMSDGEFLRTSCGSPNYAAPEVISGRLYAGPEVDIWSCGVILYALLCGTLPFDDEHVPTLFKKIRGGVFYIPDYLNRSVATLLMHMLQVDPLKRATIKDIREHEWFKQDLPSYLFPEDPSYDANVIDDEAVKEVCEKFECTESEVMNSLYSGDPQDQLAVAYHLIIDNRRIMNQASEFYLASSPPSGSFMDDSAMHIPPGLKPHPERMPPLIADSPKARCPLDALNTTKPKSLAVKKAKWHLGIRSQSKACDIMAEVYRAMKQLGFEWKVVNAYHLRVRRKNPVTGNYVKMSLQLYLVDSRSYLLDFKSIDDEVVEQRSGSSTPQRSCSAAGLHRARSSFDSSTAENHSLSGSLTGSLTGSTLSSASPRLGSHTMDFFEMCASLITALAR

The target of test [1] is T1, GST-GIV-NT WT (aa 1-440) (human) (UniProt Q3V6T2).
T1 sequence: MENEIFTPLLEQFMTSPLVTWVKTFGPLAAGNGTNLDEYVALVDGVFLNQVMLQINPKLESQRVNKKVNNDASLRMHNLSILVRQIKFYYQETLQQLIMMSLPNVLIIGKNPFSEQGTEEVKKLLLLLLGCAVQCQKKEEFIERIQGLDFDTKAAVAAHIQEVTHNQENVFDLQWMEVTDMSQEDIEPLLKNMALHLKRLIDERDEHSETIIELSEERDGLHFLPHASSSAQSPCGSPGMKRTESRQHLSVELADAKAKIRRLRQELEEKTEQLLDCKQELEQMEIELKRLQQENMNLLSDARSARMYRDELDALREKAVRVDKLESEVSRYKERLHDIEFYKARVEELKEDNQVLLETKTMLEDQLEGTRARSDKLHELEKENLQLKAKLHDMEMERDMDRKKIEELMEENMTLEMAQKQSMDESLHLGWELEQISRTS
As to the kind of experiment: pull-down; purified GST-GIV-NT (WT, SA, SD) or GST alone (5 µg) immobilized on glutathione-Sepharose beads; Cos7 lysates (~250 µg; with or without myc-AMPKα2) added, 4 hr at 4°C, 50 mM Tris-HCl pH 7.4, 100 mM NaCl, 0.4% NP-40; immunoblot; only the target purified. In general terms: In western blotting, separated proteins are transferred to a membrane and probed.

Test [2] deals with GST tagged carboxyl terminus of human β2B-tubulin (aa 390-445) (human) (UniProt Q9BVA1). As to the kind of experiment: pull-down; GST-α- or β-Tubulin-CT immobilized on glutathione beads from bacterial lysates, washed, incubated at 4°C with purified His-GIV-NT phosphorylated (+) or not (-) in vitro with recombinant AMPK heterotrimers; immunoblot anti-His; both purified.

No constants are given. Whether binding was seen depends on the method and setting. For part of these data: Binding seen in cells or lysates may run through a third protein. Some entries that bind do so weakly or less than the wild type. Tags and fused reporters may be left off the sequences shown.

As for “myc-tagged wild-type mouse AMPKα2 (from UniProt Q8BRK8 1-552) (enzyme)”, in test [1], the binding result is “binds”.

B1: His-GIV-NT WT (aa 1-440), not phosphorylated (domain or fragment, UniProt Q3V6T2 1-440)
chain: MENEIFTPLLEQFMTSPLVTWVKTFGPLAAGNGTNLDEYVALVDGVFLNQVMLQINPKLESQRVNKKVNNDASLRMHNLSILVRQIKFYYQETLQQLIMMSLPNVLIIGKNPFSEQGTEEVKKLLLLLLGCAVQCQKKEEFIERIQGLDFDTKAAVAAHIQEVTHNQENVFDLQWMEVTDMSQEDIEPLLKNMALHLKRLIDERDEHSETIIELSEERDGLHFLPHASSSAQSPCGSPGMKRTESRQHLSVELADAKAKIRRLRQELEEKTEQLLDCKQELEQMEIELKRLQQENMNLLSDARSARMYRDELDALREKAVRVDKLESEVSRYKERLHDIEFYKARVEELKEDNQVLLETKTMLEDQLEGTRARSDKLHELEKENLQLKAKLHDMEMERDMDRKKIEELMEENMTLEMAQKQSMDESLHLGWELEQISRTS
With B1, the binding result in test [2] is given as “no binding”.

B2: His-GIV-NT WT (aa 1-440), phosphorylated in vitro by AMPK at S245 (domain or fragment, UniProt Q3V6T2 1-440)
chain: MENEIFTPLLEQFMTSPLVTWVKTFGPLAAGNGTNLDEYVALVDGVFLNQVMLQINPKLESQRVNKKVNNDASLRMHNLSILVRQIKFYYQETLQQLIMMSLPNVLIIGKNPFSEQGTEEVKKLLLLLLGCAVQCQKKEEFIERIQGLDFDTKAAVAAHIQEVTHNQENVFDLQWMEVTDMSQEDIEPLLKNMALHLKRLIDERDEHSETIIELSEERDGLHFLPHASSSAQSPCGSPGMKRTESRQHLSVELADAKAKIRRLRQELEEKTEQLLDCKQELEQMEIELKRLQQENMNLLSDARSARMYRDELDALREKAVRVDKLESEVSRYKERLHDIEFYKARVEELKEDNQVLLETKTMLEDQLEGTRARSDKLHELEKENLQLKAKLHDMEMERDMDRKKIEELMEENMTLEMAQKQSMDESLHLGWELEQISRTS
modifications: phosphoserine at 245 (phosphorylated in vitro by recombinant AMPK heterotrimers)
With B2, the binding entry in test [2] is recorded as “no binding”.
